# Results taken from the supplement of paper PMC8728848.
# The other results are listed elsewhere or left out.
# B1: XTP3-B-MRH1 (Homo sapiens), Q96DZ1 (protein)
# chain: LLEPLFKQSSCSYRIESYWTYEVCHGKHIRQYHEEKETGQKINIHEYYLGNMLAKNLLFEKEREAEEKEKSNEIPTKNIEGQMTPYYPVGMGNGTPCSLKQNRPRSSTVMYICHPESKHEILSVAEVTTCEYEVVILTPLLCSHPKYRFRA
# How the values were obtained:
# Assay in all cases: glycan array binding signal (z-score within array); higher = stronger binding
# Details in all cases: glycan notation: IUPAC condensed, linker removed
# [1] = target: Man(a1-2)Man(a1-3)[Man(a1-2)Man(a1-6)]Man
# In short: (§1)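 Arrays were curated from the Consortium for Functional Glycomics database, 3228 in total, and kept only where the protein sequence was available. Binding is expressed as a within-array Z-score. This score was averaged across arrays of the same protein sequence at different concentrations or buffers and across linkers, and negative values can be read as non-binding.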
# [2] = target: Man(a1-2)Man(a1-3)[Man(a1-2)Man(a1-6)]Man(a1-6)[Man(a1-2)Man(a1-2)Man(a1-3)]Man
# In short: as §1
# [3] = target: Man(a1-2)Man(a1-3)[Man(a1-2)Man(a1-6)]Man(a1-6)[Man(a1-2)Man(a1-2)Man(a1-3)]Man(b1-4)GlcNAc(b1-4)GlcNAc
# In short: as §1
# [4] = target: Man(a1-2)Man(a1-3)[Man(a1-6)]Man(a1-6)[Man(a1-2)Man(a1-3)]Man(b1-4)GlcNAc(b1-4)GlcNAc
# In short: as §1
# [5] = target: Man(a1-2)Man(a1-6)[Man(a1-3)]Man(a1-6)[Man(a1-2)Man(a1-2)Man(a1-3)]Man
# In short: as §1
# [6] = target: Man(a1-2)Man(a1-6)[Man(a1-3)]Man(a1-6)[Man(a1-2)Man(a1-2)Man(a1-3)]Man(b1-4)GlcNAc(b1-4)GlcNAc
# In short: as §1
# Man(a1-3)[Man(a1-6)]Man = target: Man(a1-3)[Man(a1-6)]Man
# In short: as §1
# [7] = target: Man(a1-3)[Man(a1-6)]Man(a1-6)[Man(a1-2)Man(a1-3)]Man(b1-4)GlcNAc(b1-4)GlcNAc
# In short: as §1
# [8] = target: Man(a1-3)[Man(a1-6)]Man(a1-6)[Man(a1-3)]Man
# In short: as §1
# [9] = target: Man(a1-3)[Man(a1-6)]Man(a1-6)[Man(a1-3)]Man(b1-4)GlcNAc(b1-4)GlcNAc
# In short: as §1
# [10] = target: Man(a1-3)[Man(a1-6)]Man(b1-4)GlcNAc(b1-4)GlcNAc
# In short: as §1
# [11] = target: Man(a1-3)[Man(a1-6)]Man(b1-4)GlcNAc(b1-4)[Fuc(a1-6)]GlcNAc
# In short: as §1
# Man(a1-6)Man = target: Man(a1-6)Man
# In short: as §1
# Man(b1-4)GlcNAc = target: Man(b1-4)GlcNAc
# In short: as §1
# MurNAc(b1-4)GlcNAc = target: MurNAc(b1-4)GlcNAc
# In short: as §1
# Neu5Ac(a2-3)Gal = target: Neu5Ac(a2-3)Gal
# In short: as §1
# [12] = target: Neu5Ac(a2-3)Gal(b1-3)GalNAc
# In short: as §1
# [13] = target: Neu5Ac(a2-3)Gal(b1-3)GalNAc(b1-3)Gal(a1-4)Gal(b1-4)Glc
# In short: as §1
# [14] = target: Neu5Ac(a2-3)Gal(b1-3)GalNAc(b1-4)Gal(b1-4)Glc
# In short: as §1
# [15] = target: Neu5Ac(a2-3)Gal(b1-3)GalNAc(b1-4)[Neu5Ac(a2-3)]Gal(b1-4)Glc
# In short: as §1
# [16] = target: Neu5Ac(a2-3)Gal(b1-3)GalNAc(b1-4)[Neu5Ac(a2-8)Neu5Ac(a2-3)]Gal(b1-4)Glc
# In short: as §1
# [17] = target: Neu5Ac(a2-3)Gal(b1-3)GalNAc6S
# In short: as §1
# [18] = target: Neu5Ac(a2-3)Gal(b1-3)GlcNAc
# In short: as §1
# [19] = target: Neu5Ac(a2-3)Gal(b1-3)GlcNAc(b1-2)Man
# In short: as §1
# [20] = target: Neu5Ac(a2-3)Gal(b1-3)GlcNAc(b1-2)Man(a1-3)[GlcNAc(b1-4)][Neu5Ac(a2-3)Gal(b1-3)GlcNAc(b1-2)Man(a1-6)]Man(b1-4)GlcNAc(b1-4)GlcNAc
# In short: as §1
# [21] = target: Neu5Ac(a2-3)Gal(b1-3)GlcNAc(b1-2)Man(a1-3)[Neu5Ac(a2-3)Gal(b1-3)GlcNAc(b1-2)Man(a1-6)]Man(b1-4)GlcNAc(b1-4)GlcNAc
# In short: as §1
# [22] = target: Neu5Ac(a2-3)Gal(b1-3)GlcNAc(b1-2)[Neu5Ac(a2-3)Gal(b1-3)GlcNAc(b1-4)]Man(a1-6)[Neu5Ac(a2-3)Gal(b1-3)GlcNAc(b1-2)Man(a1-3)]Man(b1-4)GlcNAc(b1-4)GlcNAc
# In short: as §1
# [23] = target: Neu5Ac(a2-3)Gal(b1-3)GlcNAc(b1-3)Gal(b1-3)GlcNAc
# In short: as §1
# [24] = target: Neu5Ac(a2-3)Gal(b1-3)GlcNAc(b1-3)Gal(b1-4)GlcNAc
# In short: as §1
# [25] = target: Neu5Ac(a2-3)Gal(b1-3)GlcNAc(b1-3)GalNAc
# In short: as §1
# [26] = target: Neu5Ac(a2-3)Gal(b1-3)GlcNAc(b1-6)GalNAc
# In short: as §1
# [27] = target: Neu5Ac(a2-3)Gal(b1-3)GlcNAc6S
# In short: as §1
# [28] = target: Neu5Ac(a2-3)Gal(b1-3)[Fuc(a1-4)]GlcNAc
# In short: as §1
# [29] = target: Neu5Ac(a2-3)Gal(b1-3)[Fuc(a1-4)]GlcNAc(b1-3)Gal(b1-3)[Fuc(a1-4)]GlcNAc
# In short: as §1
# [30] = target: Neu5Ac(a2-3)Gal(b1-3)[Fuc(a1-4)]GlcNAc(b1-3)Gal(b1-4)[Fuc(a1-3)]GlcNAc
# In short: as §1
# [31] = target: Neu5Ac(a2-3)Gal(b1-3)[GlcNAc(b1-6)]GalNAc
# In short: as §1
# [32] = target: Neu5Ac(a2-3)Gal(b1-3)[Neu5Ac(a2-6)]GalNAc
# In short: as §1
# [33] = target: Neu5Ac(a2-3)Gal(b1-3)[Neu5Ac(a2-6)]GlcNAc(b1-3)[Fuc(a1-3)[Gal(b1-4)]GlcNAc(b1-6)]Gal(b1-4)Glc
# In short: as §1
# [34] = target: Neu5Ac(a2-3)Gal(b1-3)]Neu5Ac(a2-3)Gal(b1-4)]GlcNAc
# In short: as §1
# Neu5Ac(a2-3)Gal(b1-4)Glc = target: Neu5Ac(a2-3)Gal(b1-4)Glc
# In short: as §1
# [35] = target: Neu5Ac(a2-3)Gal(b1-4)GlcNAc
# In short: as §1
# [36] = target: Neu5Ac(a2-3)Gal(b1-4)GlcNAc(b1-2)Man
# In short: as §1
# [37] = target: Neu5Ac(a2-3)Gal(b1-4)GlcNAc(b1-2)Man(a1-3)[GlcNAc(b1-4)][Neu5Ac(a2-3)Gal(b1-4)GlcNAc(b1-2)Man(a1-6)]Man(b1-4)GlcNAc(b1-4)GlcNAc
# In short: as §1
# [38] = target: Neu5Ac(a2-3)Gal(b1-4)GlcNAc(b1-2)Man(a1-3)[Neu5Ac(a2-3)Gal(b1-4)GlcNAc(b1-2)Man(a1-6)]Man(b1-4)GlcNAc(b1-4)GlcNAc
# In short: as §1
# [39] = target: Neu5Ac(a2-3)Gal(b1-4)GlcNAc(b1-2)Man(a1-3)[Neu5Ac(a2-3)Gal(b1-4)GlcNAc(b1-2)Man(a1-6)]Man(b1-4)GlcNAc(b1-4)[Fuc(a1-6)]GlcNAc
# In short: as §1
binder,measurement,setting,value
B1,glycan array binding signal (z-score),[1],-0.311
same,glycan array binding signal (z-score),[2],-0.201
same,glycan array binding signal (z-score),[3],-0.893
same,glycan array binding signal (z-score),[4],-1.65
same,glycan array binding signal (z-score),[5],-0.073
same,glycan array binding signal (z-score),[6],-1.35
same,glycan array binding signal (z-score),Man(a1-3)[Man(a1-6)]Man,-0.51
same,glycan array binding signal (z-score),[7],-0.441
same,glycan array binding signal (z-score),[8],0.125
same,glycan array binding signal (z-score),[9],-0.629
same,glycan array binding signal (z-score),[10],0.334
same,glycan array binding signal (z-score),[11],-1.67
same,glycan array binding signal (z-score),Man(a1-6)Man,0.203
same,glycan array binding signal (z-score),Man(b1-4)GlcNAc,-0.814
same,glycan array binding signal (z-score),MurNAc(b1-4)GlcNAc,-0.867
same,glycan array binding signal (z-score),Neu5Ac(a2-3)Gal,-0.797
same,glycan array binding signal (z-score),[12],1.12
same,glycan array binding signal (z-score),[13],-0.636
same,glycan array binding signal (z-score),[14],-1.29
same,glycan array binding signal (z-score),[15],-0.509
same,glycan array binding signal (z-score),[16],-1.04
same,glycan array binding signal (z-score),[17],0.361
same,glycan array binding signal (z-score),[18],-0.322
same,glycan array binding signal (z-score),[19],0.891
same,glycan array binding signal (z-score),[20],-0.064
same,glycan array binding signal (z-score),[21],1.56
same,glycan array binding signal (z-score),[22],0.173
same,glycan array binding signal (z-score),[23],-1.33
same,glycan array binding signal (z-score),[24],0.189
same,glycan array binding signal (z-score),[25],-0.022
same,glycan array binding signal (z-score),[26],-0.811
same,glycan array binding signal (z-score),[27],-0.101
same,glycan array binding signal (z-score),[28],1.37
same,glycan array binding signal (z-score),[29],-0.938
same,glycan array binding signal (z-score),[30],-0.343
same,glycan array binding signal (z-score),[31],-1.47
same,glycan array binding signal (z-score),[32],0.385
same,glycan array binding signal (z-score),[33],-0.365
same,glycan array binding signal (z-score),[34],-0.364
same,glycan array binding signal (z-score),Neu5Ac(a2-3)Gal(b1-4)Glc,1.58
same,glycan array binding signal (z-score),[35],0.725
same,glycan array binding signal (z-score),[36],1.7
same,glycan array binding signal (z-score),[37],-0.155
same,glycan array binding signal (z-score),[38],0.155
same,glycan array binding signal (z-score),[39],0.021

# A stretch taken from the entries so far, as a working copy:
binder,measurement,setting,value
B1,glycan array binding signal (z-score),Man(a1-3)[Man(a1-6)]Man,-0.51
same,glycan array binding signal (z-score),[7],-0.441
same,glycan array binding signal (z-score),[8],0.125
